Measured values as given in PubChem BioAssay AID2685 (National Center for Advancing Translational Sciences (NCATS), 2010).
Some of the results follow. Shown are side measurements of this screen, not its main read-out; they come without a call. Most of these compounds were active or inconclusive in the main read-out, so they are no random draw. The note in brackets gives the kind of curve behind each potency; many fits are weak.

Experiment: qHTS Assay for Lipid Storage Modulators in Drosophila S3 Cells;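 on cell number change: cells counted by Cell Tracker Red CMTPX staining in the red channel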
Details: BODIPY lipid droplet fluorescence, 18-24 h; for cell number change: measured here: cell count max response, cells fed with added oleic acid
Outline: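 Drosophila S3 cells got compounds at several concentrations plus oleic acid (400 uM solution). Laser-scanning cytometry with 488 nm excitation read lipid droplets at 500-530 nm and cells at 575-640 nm. Percent activity was relative to 20 uM Triacsin C.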

[1] = measured here: lipid fluorescence (Fed channel) AC50, cells fed with added oleic acid
[2] = measured here: cell number channel AC50, cells fed with added oleic acid

Row | Structure (SMILES) | cell number change [%] | AC50 [1] | AC50 [2]
1 | O=C(Nc1ccccn1)C1CCCN1S(=O)(=O)c1ccc(Cl)cc1 (configuration not stated) | 3.38 | 29.1 µM [rising, single point] | 
2 | Cc1ccc2oc(C(=O)N3CCC(O)(c4ccccc4)CC3)c(C)c2c1 | 8.29 |  | 
3 | COc1cc(NC(=O)COn2nnc3ccc(S(C)(=O)=O)cc32)cc(OC)c1 | -30.8 | 18.4 µM [falling, partial curve] | 32.6 µM [falling, single point]
4 | CC(C)c1ccc(NC(=S)Nc2ccc(OC(F)(F)F)cc2)cc1 | 12 | 31.6 µM [rising, single point] | 
5 | COc1cc(NC(=O)CCN2CCOCC2)cc(OC)c1 | 30.5 | 0.58 µM [falling, single point] | 
6 | Cc1ccc(-c2noc(CCC(=O)NCCCN3CCN(c4cccc(Cl)c4)CC3)n2)cc1 | -14.8 | 13 µM [falling, partial curve] | 7.31 µM [falling, partial curve, poor fit]
7 | O=C(CCN1C(=O)COc2ccccc21)NCCN1CCOCC1 | 1.56 | 25.9 µM [falling, single point] | 
8 | C/C(CC(=O)NCCc1ccccc1)=N\NC(=O)COc1ccc(Br)cc1 | 17.9 | 5.8 µM [falling, full curve] | 
9 | Cc1cc(=O)oc2cc(NC(=O)COc3ccccc3[N+](=O)[O-])ccc12 | -23.5 | 6.51 µM [falling, single point] | 3.66 µM [falling, full curve, poor fit]
10 | COC(=O)COc1ccc(S(=O)(=O)NCc2ccc3c(c2)OCO3)cc1C | 18.1 | 6.51 µM [falling, partial curve, poor fit] | 
11 | Cc1ccccc1NC(=O)COC(=O)CCc1ccccc1 | 17.2 | 3.66 µM [falling, single point] | 
12 | COc1ccc(C(=O)Nc2cccc3cccnc23)cc1OC | 33.9 | 2.91 µM [rising, full curve] | 0.259 µM [rising, full curve]
13 | COC(=O)CSc1cc([N+](=O)[O-])ccc1NC(=O)OC | 27.7 | 0.0058 µM [rising, full curve, poor fit] | 
14 | CCc1ccc(NC(=O)C2CCN(S(C)(=O)=O)CC2)cc1 |  |  | 6.51 µM [rising, single point]
15 | O=C(CS(=O)(=O)c1ccc(F)cc1)NCc1ccccc1 | 0.129 | 6.51 µM [rising, single point] | 
16 | Cc1[nH][nH]c(=O)c1C(c1ccc(Br)cc1)c1c(C)[nH][nH]c1=O | -5.25 | 29.1 µM [rising, single point] | 
17 | COc1ccc(N(Cc2cc3ccccc3[nH]c2=O)S(=O)(=O)c2ccc(OC)cc2)cc1 | -31.9 | 25.9 µM [falling, single point] | 13 µM [falling, single point]
18 | O=C(Nc1cccc(S(=O)(=O)N2CCOCC2)c1)c1ccccc1[N+](=O)[O-] | 40 | 18.4 µM [rising, partial curve, poor fit] | 23.1 µM [rising, partial curve, poor fit]
19 | COc1ccccc1CNC(=O)COC(=O)c1ccccc1-c1ccccc1 |  |  | 1.64 µM [rising, partial curve]
20 | O=C(NCc1ccc(Cl)cc1)c1ccc(-n2cccn2)nc1 | 35.3 |  | 

Row | Structure (SMILES) | cell number change [%] | AC50 [1] | AC50 [2]
21 | N#CC(C(=O)CCN1C(=O)C2CC=CCC2C1=O)c1nc2ccccc2[nH]1 (configuration not stated) |  | 4.11 µM [rising, partial curve] | 
22 | COc1ccc(NC(=O)COC(=O)CC23CC4CC(CC(C4)C2)C3)c([N+](=O)[O-])c1 | -56.7 | 9.2 µM [falling, partial curve] | 25.9 µM [falling, partial curve]
23 | CCSc1nc2ccccc2c(=O)n1Cc1ccc(F)cc1 | 4.62 | 6.51 µM [falling, single point] | 
24 | Brc1ccc(N=C(c2ccccc2)c2ccncc2)cc1 | 21.7 |  | 0.0291 µM [rising, partial curve, poor fit]
25 | Cc1c(C(=O)O)cccc1-c1ccc(/C=C2\SC(=O)NC2=O)o1 | -17.5 |  | 
26 | Cc1c(NC(=O)CN2C(=O)NC3(CCCCC3C)C2=O)cccc1[N+](=O)[O-] (configuration not stated) | -2.63 | 7.31 µM [falling, partial curve, poor fit] | 
27 | CC(C)(C)c1ccc(NC(=O)COC(=O)CCN2C(=O)c3cccc([N+](=O)[O-])c3C2=O)cc1 | 5.94 | 29.1 µM [rising, single point] | 
28 | CC(=O)CSc1nnc2cc(C)c3ccccc3n12 |  | 0.82 µM [rising, full curve] | 0.651 µM [rising, full curve]
29 | Cc1ccc2oc(C(=O)NCC(c3ccco3)N3CCCC3)c(C)c2c1 (configuration not stated) | 34.2 | 29.1 µM [rising, single point] | 4.11 µM [rising, full curve, poor fit]
30 | O=C(COC(=O)c1cccc(-n2cnnn2)c1)c1ccc(Br)cc1 |  | 0.146 µM [falling, full curve, poor fit] | 0.58 µM [falling, single point]
31 | CCOC(=O)C1=C(N)Oc2cc(O)ccc2C1c1ccc(Br)cc1 (configuration not stated) | 0.971 |  | 
32 | CCOC(=O)C1=C(C)N(C)C(=O)NC1c1c(OC)ccc2ccccc12 (configuration not stated) | -33.9 |  | 5.17 µM [falling, single point]
33 | Cc1nnc(SCC(=O)Nc2ccc(Cl)cn2)n1Cc1ccccc1 | 0.204 | 0.731 µM [rising, full curve] | 
34 | Cc1ccccc1/C=c1\s/c(=C\C(=O)C(C)(C)C)[nH]c1=O | -108 |  | 29.1 µM [falling, single point]
35 | COc1ccccc1N1CCN(CC(=O)c2c(C)n(C)c3ccccc23)CC1 | -0.646 | 29.1 µM [rising, single point] | 
36 | CC(=O)Nc1ccc(NC(=O)CNC(=O)c2cccc(C)c2)cc1 | 4.78 | 18.4 µM [rising, partial curve] | 
37 | COc1ccc(C(=O)Nc2ccc3nc(N4CCN(C)CC4)cc(C)c3c2)c(OC)c1 | 29.8 |  | 0.82 µM [rising, full curve]
38 | CN1/C(=C\C(=O)COC(=O)C2COc3ccccc3O2)C(C)(C)c2ccccc21 (configuration not stated) | -46.8 | 2.31 µM [falling, full curve] | 1.03 µM [falling, full curve]
39 | O=C1CCC(C(=O)OCc2c(Cl)cccc2Cl)N1 (configuration not stated) | -40.2 | 23.1 µM [falling, single point] | 20.6 µM [falling, single point]
40 | CCN(CC)CCCN(Cc1cc2cc3c(cc2[nH]c1=O)OCO3)C(=S)NCCCOC | -10.8 |  | 

Row | Structure (SMILES) | cell number change [%] | AC50 [1] | AC50 [2]
41 | CSc1nc2c(cnn2-c2ccc(C)c(C)c2)c(=O)[nH]1 | -1.84 | 0.13 µM [falling, full curve, poor fit] | 
42 | CSCC[C@H](NC(=O)Cc1c(C)c2c(cc(C)c3c(C)coc32)oc1=O)C(=O)O | 22.5 | 29.1 µM [rising, single point] | 
43 | O=C(N/N=C\c1ccc(Br)o1)C1COc2ccccc2O1 (configuration not stated) | 12.3 | 0.366 µM [rising, full curve, poor fit] | 0.116 µM [rising, full curve]
44 | O=C1C(C=NCc2ccncc2)=C(O)c2ccccc21 | 20.6 | 6.51 µM [rising, single point] | 
45 | Cn1cccc1/C=C1\SC(=S)N(NC(=O)c2ccc(Cl)cc2)C1=O | 3.07 | 2.06 µM [falling, partial curve] | 
46 | O=C(CN1C(=O)C2CC=CCC2C1=O)Nc1nnc(C2CC2)s1 (configuration not stated) | -21.6 |  | 4.11 µM [falling, full curve, poor fit]
47 | COc1cccc(CNC(=O)CCn2ccc3cc(S(=O)(=O)N4CCCC4)ccc32)c1 | -13 |  | 
48 | Cc1cc(Br)ccc1NC(=O)CN(C)C(=O)CSC(=S)N1CCCC1 | -11.4 | 0.00461 µM [falling, full curve] | 
49 | C(/CCc1ccccc1)=N\Nc1nc2ccccc2[nH]1 | -20.4 |  | 0.411 µM [falling, partial curve, poor fit]
50 | O=c1[nH]c2cc3c(cc2cc1CN(CCO)S(=O)(=O)c1ccccc1Cl)OCCO3 | -36.4 |  | 11.6 µM [falling, partial curve]
51 | O=C(Nc1ccc(F)cc1)C1CCN(C(=O)c2ccc(F)cc2)CC1 | -0.0107 | 5.8 µM [rising, single point] | 
52 | O=C(NC(=S)NCCC1=CCCCC1)c1ccco1 |  |  | 0.146 µM [rising, single point]
53 | Cc1c(C(=O)NCc2ccco2)oc2ccc(Br)cc12 | 49.8 |  | 1.16 µM [rising, full curve, poor fit]
54 | CC1CC(=O)Nc2ccccc2N1C(=O)CSc1nnnn1C(C)C (configuration not stated) | -0.937 |  | 
55 | COC(=O)CCC(=O)N1CCCC(N2CCN(c3cccc(C(F)(F)F)c3)CC2)C1 (configuration not stated) | 34.1 | 29.1 µM [rising, single point] | 32.6 µM [rising, single point]
56 | CC(C)CC(=O)Nc1nc2c(c(=O)[nH]1)CCCC2 | 9.7 |  | 0.651 µM [falling, full curve, poor fit]
57 | COc1ccc(NCc2nnc(SCC(=O)Nc3ccc(OC)cc3)n2C)cc1 | 50.4 |  | 14.6 µM [rising, single point]
58 | Nc1nc(-c2cccs2)c(NC(=O)c2ccccc2)s1 | 19 |  | 0.116 µM [rising, full curve, poor fit]

Reformatted as a markdown table: entries from further up.

| Row | Structure (SMILES) | cell number change [%] | AC50 [1] | AC50 [2] |
| --- | --- | --- | --- | --- |
| 56 | CC(C)CC(=O)Nc1nc2c(c(=O)[nH]1)CCCC2 | 9.7 |  | 0.651 µM [falling, full curve, poor fit] |
| 57 | COc1ccc(NCc2nnc(SCC(=O)Nc3ccc(OC)cc3)n2C)cc1 | 50.4 |  | 14.6 µM [rising, single point] |
| 58 | Nc1nc(-c2cccs2)c(NC(=O)c2ccccc2)s1 | 19 |  | 0.116 µM [rising, full curve, poor fit] |
